According to PubChem BioAssay AID651640 (Broad Institute, 2012):
Among all 350,000 compounds or so, about 6,000 (1.7%) were called active. The inconclusive results got no clear call from the source; some entries with a clear call stand among them for comparison. Cut-off read from the data, not from the text of the source: active = CPE inhibition above about 20% (passing the limit was not always enough); inconclusive = no clear call, values can overlap the other calls; tested in BHK-21 cells.

Test: protection of cells from dengue 2 killing – plate reader, single concentration, primary screen (AID 651640);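 note: 0% = median of neutral control wells and 100% = median of positive control wells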
Details: DENV2-infected cells, cytopathic effect rescue, at 9.99 µM, hits give high values

| Structure (SMILES) | CPE inhibition |
| --- | --- |
| CCCCc1c(-c2ccccc2F)ncn1CCc1ccccc1OC | inactive: 4.88% |
| CC(=O)Nc1ccc(CN(C)c2c(C)nc3ccc(C(=O)NCCc4ccccn4)cn23)cc1 | inconclusive: 33.5% |
| C[C@@H]1CCCCO[C@H](CN(C)Cc2ccc(C(F)(F)F)cc2)[C@H](C)CN([C@@H](C)CO)C(=O)c2cc(NC(=O)c3ccccc3)ccc2O1 | active: 140% |
| C[C@@H]1CN([C@@H](C)CO)C(=O)Cc2cc(NC(=O)Cc3cn(C)c4ccccc34)ccc2O[C@@H]1CN(C)Cc1ccncc1 | inconclusive: 39.1% |
| COCc1cccc(-c2csc(C(O)c3cccc(OC)c3)n2)c1 (stereo not given) | inconclusive: 30% |
| CC(C)CC#Cc1ccc2c(c1)O[C@@H](CN(C)Cc1cncnc1)[C@H](C)CN([C@@H](C)CO)S2(=O)=O | active: 23.9% |
| CC(=O)N(C)C[C@H]1[C@H](c2ccc(-c3ccccc3F)cc2)[C@@H](CO)N1C(C)=O | active: 31.7% |
| C[C@H]1CN([C@@H](C)CO)C(=O)c2cc(NC(=O)NC3CCCCC3)ccc2O[C@@H]1CN(C)S(=O)(=O)c1ccc(F)cc1 | inconclusive: 47.7% |
| Cc1ncc(CN2CCCC(C(=O)Nc3ccc(-c4ccco4)cc3)C2)cn1 (stereo not given) | inactive: 8.53% |
| COc1ccc(/C=N/Nc2nc(Nc3ccccc3)nc(N3CCCC3)n2)cc1 | inactive: 1.21% |
| Cc1cc(Cl)c(S(=O)(=O)N2CCCC2)cc1OCC(N)=O | inconclusive: 48.2% |
| C[C@H]1CN([C@@H](C)CO)S(=O)(=O)c2ccc(C#Cc3cccc(F)c3)cc2O[C@@H]1CN(C)C | inactive: -5.44% |
| COC(=O)C(NC(=O)CCc1c(C)nc2c(c(C)nn2-c2ccccc2)c1C)C(C)C (stereo not given) | inconclusive: 43.5% |
| COc1ccc(S(=O)(=O)Nc2ccc3c(c2)CC(=O)N([C@H](C)CO)C[C@@H](C)[C@@H](CN(C)C(=O)Nc2c(C)noc2C)O3)cc1 | inconclusive: 46.3% |
| O=C(COC(=O)Cc1ccc(Cl)cc1)NCc1ccc(Cl)cc1 | inactive: 11.7% |
| Cc1nc(Cl)cc(N/N=C/c2ccc(O)cc2)n1 | inconclusive: 53.3% |
| C[C@@H]1CN([C@@H](C)CO)S(=O)(=O)c2ccc(C#C[C@@H](C)O)cc2O[C@H]1CN(C)Cc1cncnc1 | inconclusive: -6.86% |
| C[C@H](CO)N1C[C@H](C)[C@H](CN(C)S(=O)(=O)c2ccc(C#N)cc2)OCc2ccccc2-c2c(n(C)c3ccccc23)C1=O | inactive: -0.1% |
| CCCNC(=O)N(C)C[C@H]1Oc2cc(C#CCOC)ccc2S(=O)(=O)N([C@@H](C)CO)C[C@@H]1C | inconclusive: 30.7% |
| C[C@@H]1CN([C@H](C)CO)C(=O)c2cc(-c3cccc(F)c3)cnc2O[C@@H]1CN(C)Cc1ccncc1 | inconclusive: 40.5% |
| CC(C)c1onc(C(=O)N2CCOCC2)c1[N+](=O)[O-] | inactive: -8.7% |
| Nc1ccccc1C(O)(Cc1ccccc1)c1ccccc1 (stereo not given) | active: 36.4% |
| COc1ccc(N(CC(=O)NCc2ccc(Cl)cc2)S(=O)(=O)c2ccccc2[N+](=O)[O-])c(OC)c1 | inconclusive: 47% |
| O=C(O)c1cccc(Nc2nc3ccccc3nc2NS(=O)(=O)c2ccc(F)cc2)c1 | inconclusive: 33.6% |

| Structure (SMILES) | CPE inhibition |
| --- | --- |
| OC[C@H]1[C@H](c2ccc(/C=C/c3ccccc3)cc2)[C@@H]2CN(Cc3cccnc3)CCCCN12 | inconclusive: 21% |
| CO[C@H]1CN(C)C(=O)c2cc(NS(C)(=O)=O)ccc2OC[C@@H](C)N(C(=O)C2CCCC2)C[C@H]1C | inconclusive: 28.3% |
| COc1ccc(CN(C)C[C@@H]2Oc3c(NC(=O)c4cnccn4)cccc3C(=O)N([C@H](C)CO)C[C@H]2C)cc1 | inconclusive: 20.8% |
| C[C@H](CO)N1C[C@H](C)[C@@H](CN(C)C(=O)CN2CCOCC2)Oc2cc(Br)ccc2S1(=O)=O | inconclusive: 28.6% |
| COc1ccc(S(=O)(=O)N(Cc2cccnc2)Cc2cc3ccccc3[nH]c2=O)cc1 | inactive: 5.25% |
| Cc1ccc(CNC(=O)c2ccc(N(C)S(=O)(=O)c3ccccc3)cc2)cc1 | inactive: -4.83% |
| O=C(C[C@H]1CC[C@H]2[C@@H](COC[C@H](O)CN2C(=O)Nc2ccc(Cl)cc2)O1)NCC1CC1 | active: 85.5% |
| C[C@@H]1CCCCO[C@@H](CN(C)S(=O)(=O)c2cn(C)cn2)[C@@H](C)CN([C@H](C)CO)C(=O)c2cc(NS(=O)(=O)c3cccs3)ccc2O1 | active: 30.3% |
| C[C@H](CO)N1C[C@H](C)[C@@H](CN(C)Cc2ccc3c(c2)OCO3)OCCCC[C@H](C)Oc2ccc(N(C)C)cc2C1=O | active: 124% |
| CO[C@H]1CN(C)C(=O)c2cc(NS(=O)(=O)c3ccccc3F)ccc2OC[C@@H](C)NC[C@@H]1C | active: 65.4% |
| C[n+]1c(/C=C/c2ccc3c(c2)OCO3)ccc2ccccc21 | inconclusive: 23.6% |
| CCn1cnc2c(Nc3cccc(Cl)c3)nc(C#N)nc21 | inconclusive: 29.5% |
| COc1ccc(CC(C)N2CCN(Cc3ccccc3)CC2)c(OC)c1 (stereo not given) | inactive: 2.1% |
| O=C(NN1C(=O)/C(=C/C=C/c2ccco2)SC1=S)c1ccccc1O | inactive: 6.5% |
| O=C(CSc1nnc(-c2ccc(Br)cc2)o1)Nc1cccc(C(=O)O)c1 | inconclusive: 71.8% |
| CC(C)(C)[S@@](=O)N1Cc2cc(C(=O)N3CCCCC3)nc(-c3cccc(-c4ccc(C#N)cc4)c3)c2[C@H]1CCO | inconclusive: 36.1% |
| CS(=O)(=O)Nc1ccc2c(c1)[C@H]1C[C@H](CC(=O)NCc3ccc(Oc4ccccc4)cc3)O[C@H](CO)[C@H]1O2 | inconclusive: 28.2% |
| OCCN1CCN(c2ncnc3c2ncn3[C@H]2CN(Cc3ccc(-c4ccccc4)cc3)C[C@@H](CO)O2)CC1 | inconclusive: 36.2% |
| O=C(O)c1ccc2c(=O)n3c(nc2c1)/C(=C/c1ccc(F)cc1)CC3 | inconclusive: 20.7% |
| C[C@H]1CN([C@@H](C)CO)S(=O)(=O)c2ccc(C#CCN(C)C)cc2O[C@@H]1CN(C)C(=O)CN(C)C | inactive: 3.56% |
| CCNC(=O)C[C@H]1CC[C@H]2[C@@H](COC[C@@H](O)CN2Cc2ccc(Cl)c(Cl)c2)O1 | active: 105% |
| C[C@@H]1CN([C@H](C)CO)C(=O)c2cc(NC(=O)NC3CCCCC3)ccc2O[C@@H]1CN(C)Cc1ccncc1 | active: 30.2% |
| CC1CCCN(C(=O)C2CCN(c3ncnc4c3nc3n4CCCCC3)CC2)C1 (stereo not given) | inactive: 3.62% |
| C[C@H](CO)N1C[C@H](C)[C@H](CN(C)Cc2ccc3c(c2)OCO3)OCCCC[C@H](C)Oc2ccc(NC(=O)CCCN(C)C)cc2C1=O | inactive: -2.66% |

4 compounds out of the list, ordered by molecular weight, descending:

| Structure (SMILES) | CPE inhibition |
| --- | --- |
| C[C@@H]1CCCCO[C@@H](CN(C)S(=O)(=O)c2cn(C)cn2)[C@@H](C)CN([C@H](C)CO)C(=O)c2cc(NS(=O)(=O)c3cccs3)ccc2O1 | active: 30.3% |
| COc1ccc(S(=O)(=O)N(Cc2cccnc2)Cc2cc3ccccc3[nH]c2=O)cc1 | inactive: 5.25% |
| COc1ccc(CC(C)N2CCN(Cc3ccccc3)CC2)c(OC)c1 (stereo not given) | inactive: 2.1% |
| CCn1cnc2c(Nc3cccc(Cl)c3)nc(C#N)nc21 | inconclusive: 29.5% |

Additional structures

| Structure (SMILES) | CPE inhibition |
| --- | --- |
| CCCNC(=O)C(Cc1ccccc1C)NC(=O)c1ccc(C(F)(F)F)cc1 (stereo not given) | inconclusive: 37.8% |
| C=CCn1c(SCC(=O)c2ccc(O)c(O)c2)nnc1-c1cccnc1 | inactive: 1.18% |
| O=c1oc(CCO)cc2ccc(C#Cc3ccsc3)cc12 | inactive: 15.6% |
| CCS(=O)(=O)N1CCCCN2[C@H](CO)[C@@H](c3ccc(C#CC(C)(C)O)cc3)[C@H]2C1 | active: 22.1% |
| C[C@]12CCC3C4(C=CC5(C=C4C(=O)C4CCCCC4)C[C@@H](O)CC[C@]35C)C1CC[C@@]2(O)CN1CCC(n2c(=O)[nH]c3ccccc32)CC1 (stereo not given in full) | inactive: 13.5% |
| O=C(C[C@H]1C=C[C@@H](NC(=O)Nc2ccccc2F)[C@@H](CO)O1)NCc1ccc(-c2ccccc2)cc1 | inconclusive: 20.1% |
| C[C@@H]1CN([C@@H](C)CO)C(=O)Cc2cc(NC(=O)CCC(F)(F)F)ccc2O[C@@H]1CN(C)S(=O)(=O)c1ccc(F)cc1 | inconclusive: 29.7% |
| C[C@H]1CN([C@@H](C)CO)C(=O)c2cccc(NC(=O)c3ccc(-c4nccs4)cc3)c2O[C@@H]1CN(C)S(=O)(=O)c1cn(C)cn1 | inconclusive: 49.1% |
| CC(=O)NC(=O)c1ccc(-c2ccc(Cl)cc2)o1 | inactive: 2.28% |
| CC(C)Oc1ccc(S(=O)(=O)N2CCOCC2)cc1NC(=O)C1COc2ccccc2O1 (stereo not given) | inconclusive: 20.4% |
| Cc1cc(-c2ccc(C)c(S(=O)(=O)NCC3CCN(Cc4ccc(F)cc4)CC3)c2)on1 | inconclusive: 40.7% |
| COc1ccc(C(=O)NCC(C)(c2ccccc2)c2ccccc2)cc1S(=O)(=O)N1CCOCC1 | inconclusive: 51.2% |
| CC(=O)c1cccc(NC(=O)C2CCCN2S(=O)(=O)c2ccccc2C(F)(F)F)c1 (stereo not given) | inconclusive: 49.7% |
| C[C@H]1CN([C@@H](C)CO)C(=O)Cc2cc(NC(=O)Nc3ccccc3)ccc2O[C@H]1CN(C)Cc1ccc(Cl)c(Cl)c1 | inactive: -6.12% |
| C[C@H]1CN([C@@H](C)CO)S(=O)(=O)c2ccc(-c3cncnc3)cc2O[C@@H]1CN(C)Cc1cccnc1 | inactive: -6.53% |
| CC(=O)Nc1cccc(/C(C)=N/NC(=O)c2cccc(S(=O)(=O)N3CCCC3)c2)c1 | active: 25% |
| COCC#Cc1ccc([C@H]2[C@H](CO)N3C(=O)CN(C(=O)C4CCCC4)C[C@@H]23)cc1 | inactive: 11.5% |
| CCCCCC(=O)N1C[C@@H](n2cc(COC(=O)c3ccccc3)nn2)[C@H](O)C[C@@H]1c1ccc(C)cc1 | inconclusive: 35.3% |
| C[C@@]12CCC=C[C@H]1[C@H](c1ccc(F)c(/C=C/c3ccccc3)c1)N(Cc1ccccc1)C2=O | inconclusive: 49.9% |
| COc1ccc(C2=NN(CCC(=O)NC3CCC(C)CC3)C(=O)CC2)cc1 (stereo not given) | inactive: -3.16% |
| C/C(=C\C(=O)c1ccccc1)Nc1ccc(Br)c(Cl)c1 | inconclusive: 38.3% |
| Cc1ccc(S(=O)(=O)N2CCC[C@H]2C(=O)Oc2ccccc2)cc1 | inconclusive: 38.9% |
